Results published in the supplement of paper PMC7877785.
± gives the uncertainty stated by the source. The uncertainty is large for many entries.

Assay: self-splicing fitness, log relative to wild type (ln ratio); higher = more splicing; Tetrahymena group I intron in knt gene, E. coli kanamycin selection, DiMSum; sequences stand for … in CUCUCU…GGAGGGAAAAGUUAUCAGGCAUGCACCUGGUAGCUAGUCUUUAAACCAAUAGAUUGCAUCGGUUUAAAAGGCAAGACCGUCAAAUUGCGGGAAAGGGGUCAACAGCCGUUCAGUACCAAGUCUCAGGGGAAACUUUGAGAUGGCCUUGCAAAGGGUAUGGUAAUAAGCUGACGGACAUGGUCCUAACCACGCAGCCAAGUCCUAAGUCAACAGAUCUUCUGUUGAUAUGGAUGCAGUUCACAGACUAAAUGUCGGUCGGGGAAGAUGUAUUCUUCUCAUAAGAUAUAGUCGGACCUCUCCUUAAUGGGAGCUAGCGGAUGAAGUGAUGCAACACUGGAGCCGCUGGGAACUAAUUUGUAUGCGAAAGUAUAUUGAUUAGUUUUGGAGUACUCGUGGUCG
Summary of the method: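 Pooled colonies went to amplicon sequencing on an Illumina HiSeq 2500 after six replicate transformations. The plates were LB agar with 100 μg/mL carbenicillin, 50 μM IPTG and 0.2% rhamnose, with or without 25 μg/mL kanamycin, incubated overnight at 37°C or 30°C. The E. coli BL21(DE3) library had all eight P1ex-region intron nucleotides randomised, the intron placed in the knt kanamycin-resistance gene on pET-22b(+). DiMSum fitness is the error-weighted combination of replicate fold changes, kanamycin against none, normalised to wild type.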

Sequence	self-splicing fitness (ln) (30 °C)	self-splicing fitness (ln) (37 °C)
GGAGAGCAAUAUUACGGCGG	-4 ± 1	-2.87 ± 0.61
AAGGAGCAAUAUUACGGGUC	-4.37 ± 0.51	-2.23 ± 0.57
UUGGAGCAAUAUUACGCGAA	-3.7 ± 1.1	–
UCGGAGCAAUAUUACGGCGA	-1.1 ± 0.18	-0.689 ± 0.23
UGUCAGCAAUAUUACGCUAC	-4.12 ± 1	-3.12 ± 0.74
CACUAGCAAUAUUACGCUAC	-3.2 ± 0.6	–
CAUGAGCAAUAUUACGUUCG	-1.33 ± 0.13	-0.161 ± 0.14
ACACAGCAAUAUUACGACAU	-0.676 ± 0.01	-0.0836 ± 0.031
UCUGAGCAAUAUUACGUAAG	-0.697 ± 0.11	-0.863 ± 0.19
UAGGAGCAAUAUUACGAGAC	–	-1.31 ± 0.53
CGCGAGCAAUAUUACGCCAA	–	-0.727 ± 0.64
CGUUAGCAAUAUUACGAGGC	-3.26 ± 0.63	-2.9 ± 0.53
CGGAAGCAAUAUUACGUCAA	-2.75 ± 0.54	-3.55 ± 0.42
CUAGAGCAAUAUUACGAACU	-1.73 ± 0.91	–
GGUCAGCAAUAUUACGGGCU	-4.29 ± 0.52	-2.66 ± 0.53
GUUGAGCAAUAUUACGAACU	-4.3 ± 0.72	–
AACUAGCAAUAUUACGGUCA	-0.313 ± 0.074	0.442 ± 0.093
CUGUAGCAAUAUUACGCAUA	-2.83 ± 0.47	-2.43 ± 0.41
CUCAAGCAAUAUUACGGUGU	-3.3 ± 0.12	-1.31 ± 0.13
UGCGAGCAAUAUUACGAGAU	-2.4 ± 0.33	-3.21 ± 0.35
GGCAAGCAAUAUUACGCCCC	-4.13 ± 0.73	–
UCCGAGCAAUAUUACGUCCG	–	-2.61 ± 0.53
CCCUAGCAAUAUUACGAAAC	-3.7 ± 1.1	-2.54 ± 0.76
ACGGAGCAAUAUUACGAGUG	-4.78 ± 0.52	–

Sequence	self-splicing fitness (ln) (30 °C)	self-splicing fitness (ln) (37 °C)
UCGAAGCAAUAUUACGCUAA	-3.81 ± 0.53	–
UCCUAGCAAUAUUACGCAUG	–	-3.22 ± 0.52
GUAAAGCAAUAUUACGAGCG	-0.0732 ± 0.09	0.212 ± 0.12
UAGUAGCAAUAUUACGAGGA	-1.94 ± 0.51	–
AACAAGCAAUAUUACGUUGC	-2.83 ± 0.18	-3.21 ± 0.32
CGUAAGCAAUAUUACGCAAA	-3.06 ± 0.81	–
UCAGAGCAAUAUUACGCUGG	-3.76 ± 1	-2.88 ± 0.75
GGCCAGCAAUAUUACGUGAA	-1.67 ± 0.066	-0.271 ± 0.077
UGCGAGCAAUAUUACGUCGG	-3.59 ± 0.61	–
UGGGAGCAAUAUUACGGAGA	-3.75 ± 0.52	-3.15 ± 0.73
AGUAAGCAAUAUUACGGAUG	-3.1 ± 0.25	-2.2 ± 0.26
UGACAGCAAUAUUACGACCU	-1.09 ± 0.11	0.0765 ± 0.14
CUAUAGCAAUAUUACGGACA	-2.77 ± 0.22	-1.1 ± 0.29
CAGUAGCAAUAUUACGCCCC	–	-0.879 ± 0.58
CACUAGCAAUAUUACGGAGA	-3.66 ± 0.6	–
UUCGAGCAAUAUUACGCAUU	-4.33 ± 0.51	–
UCGGAGCAAUAUUACGCUGC	–	-2.89 ± 0.6
UCUGAGCAAUAUUACGGUCC	–	-3.12 ± 0.73
GGAAAGCAAUAUUACGGCCC	-0.297 ± 0.65	–
GAAUAGCAAUAUUACGCGGG	-3.86 ± 1	–
GCACAGCAAUAUUACGAAUG	-1.89 ± 0.051	-1.09 ± 0.063
UCUUAGCAAUAUUACGGAUC	-4.04 ± 0.61	–
ACACAGCAAUAUUACGUCAA	-2.25 ± 0.19	-1.99 ± 0.14
GCACAGCAAUAUUACGCGCC	–	-2.33 ± 0.56

Sequence	self-splicing fitness (ln) (30 °C)	self-splicing fitness (ln) (37 °C)
AUGCAGCAAUAUUACGCAGG	-3.71 ± 0.14	-2.13 ± 0.12
UGGUAGCAAUAUUACGAGUC	-4.2 ± 1	–
GGAGAGCAAUAUUACGAGCC	–	-2.29 ± 1.1
GUCCAGCAAUAUUACGGCAG	-4.98 ± 0.51	–
UCGGAGCAAUAUUACGAACC	-3.7 ± 1.1	-2.47 ± 1.1
UAGGAGCAAUAUUACGUAGU	-3.13 ± 0.3	-1.81 ± 0.3
CUCCAGCAAUAUUACGCAAA	-3.21 ± 0.21	-2.68 ± 0.26
GUCAAGCAAUAUUACGAUUG	-5.32 ± 0.51	–
UCUUAGCAAUAUUACGAGGC	–	-2.98 ± 1.1
UUCGAGCAAUAUUACGUCGC	-2.09 ± 0.21	-3.51 ± 0.6
UCGAAGCAAUAUUACGCAAC	–	-2.78 ± 0.61
CGGGAGCAAUAUUACGCACG	–	-2.74 ± 0.74
GAUGAGCAAUAUUACGGACG	-4.75 ± 0.72	–
UACGAGCAAUAUUACGCAAC	-2.85 ± 0.22	-2.19 ± 0.26
UCUGAGCAAUAUUACGGCUA	-3.33 ± 0.42	-2.58 ± 0.29
CUGGAGCAAUAUUACGCCAG	-4.65 ± 0.59	–
GCAUAGCAAUAUUACGCUGG	-4.94 ± 0.71	–
GAGAAGCAAUAUUACGCGUA	-1.03 ± 0.12	-1.1 ± 0.13
UUAUAGCAAUAUUACGGAAC	-3.09 ± 0.36	-1.71 ± 0.44
UGAGAGCAAUAUUACGGGUA	–	-3.66 ± 0.52
UUCGAGCAAUAUUACGAAAG	–	-3.16 ± 0.74
GACGAGCAAUAUUACGUCCC	-3.7 ± 1.1	–
CUUGAGCAAUAUUACGGACC	-2.35 ± 0.51	-2.13 ± 0.81
GCCUAGCAAUAUUACGCCGA	–	-1.15 ± 0.57

Sequence	self-splicing fitness (ln) (30 °C)	self-splicing fitness (ln) (37 °C)
AGCGAGCAAUAUUACGUUGA	-4.28 ± 0.51	–
GUGGAGCAAUAUUACGUCGC	-3.19 ± 0.57	–
AAAGAGCAAUAUUACGCCCC	0.285 ± 1.1	-1.78 ± 1.2
GGAAAGCAAUAUUACGAGAA	-2.96 ± 0.65	-1.29 ± 0.27
GUCGAGCAAUAUUACGAAGG	–	-1.64 ± 0.68
CUAAAGCAAUAUUACGGUAC	-5.12 ± 0.51	–
CUGGAGCAAUAUUACGUAAU	–	-0.797 ± 0.56
CAGGAGCAAUAUUACGCAUA	-4.16 ± 0.72	–
AUACAGCAAUAUUACGAAGC	-3.01 ± 0.56	-2.67 ± 0.62
UCUAAGCAAUAUUACGCGCC	-4 ± 0.59	–
UGAGAGCAAUAUUACGAACC	-2.21 ± 1.1	-0.265 ± 0.76
GAAGAGCAAUAUUACGUCCG	–	-2.42 ± 0.54
UUACAGCAAUAUUACGAGGC	-2.84 ± 0.53	–
AGCAAGCAAUAUUACGAAGC	–	-3.24 ± 0.61
GAUGAGCAAUAUUACGCCGU	-3.56 ± 0.64	–
CAGGAGCAAUAUUACGGUGU	-3.1 ± 0.15	-2.66 ± 0.2
CGACAGCAAUAUUACGAAGA	-2.29 ± 0.17	-2.09 ± 0.16
CCCCAGCAAUAUUACGGCCC	-2.25 ± 0.59	–
UGGCAGCAAUAUUACGGCGC	-3.54 ± 0.53	-1.16 ± 0.58
CCUCAGCAAUAUUACGCAAA	-3.3 ± 0.56	–
AUGGAGCAAUAUUACGAUAA	–	-3.4 ± 0.59
UAAGAGCAAUAUUACGGGCU	-4.14 ± 0.72	–

Retrieved one by one from the entries so far:
Sequence	self-splicing fitness (ln) (30 °C)	self-splicing fitness (ln) (37 °C)
CCUCAGCAAUAUUACGCAAA	-3.3 ± 0.56	–
GAUGAGCAAUAUUACGCCGU	-3.56 ± 0.64	–
AGCGAGCAAUAUUACGUUGA	-4.28 ± 0.51	–
CAGGAGCAAUAUUACGGUGU	-3.1 ± 0.15	-2.66 ± 0.2
UCUAAGCAAUAUUACGCGCC	-4 ± 0.59	–
GUCGAGCAAUAUUACGAAGG	–	-1.64 ± 0.68
